In PubChem BioAssay AID528 (NMMLSC, 2006):
In all, about 24,000 compounds went through this assay and fewer than 10 were called active. Inconclusive means that the source gave no clear call. Such entries were picked first, then a sample of the others.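 How the source made its calls: active means fluorescent ligand binding to cells raised by more than 40% of the manganese-induced maximum; inconclusive means compound's own fluorescence above 85% of the ligand control signal; inactive means the rest.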

Sequences of proteins named here, by UniProt entry; tags and fusion partners are left off.
UniProt P13612, whole entry, looked up: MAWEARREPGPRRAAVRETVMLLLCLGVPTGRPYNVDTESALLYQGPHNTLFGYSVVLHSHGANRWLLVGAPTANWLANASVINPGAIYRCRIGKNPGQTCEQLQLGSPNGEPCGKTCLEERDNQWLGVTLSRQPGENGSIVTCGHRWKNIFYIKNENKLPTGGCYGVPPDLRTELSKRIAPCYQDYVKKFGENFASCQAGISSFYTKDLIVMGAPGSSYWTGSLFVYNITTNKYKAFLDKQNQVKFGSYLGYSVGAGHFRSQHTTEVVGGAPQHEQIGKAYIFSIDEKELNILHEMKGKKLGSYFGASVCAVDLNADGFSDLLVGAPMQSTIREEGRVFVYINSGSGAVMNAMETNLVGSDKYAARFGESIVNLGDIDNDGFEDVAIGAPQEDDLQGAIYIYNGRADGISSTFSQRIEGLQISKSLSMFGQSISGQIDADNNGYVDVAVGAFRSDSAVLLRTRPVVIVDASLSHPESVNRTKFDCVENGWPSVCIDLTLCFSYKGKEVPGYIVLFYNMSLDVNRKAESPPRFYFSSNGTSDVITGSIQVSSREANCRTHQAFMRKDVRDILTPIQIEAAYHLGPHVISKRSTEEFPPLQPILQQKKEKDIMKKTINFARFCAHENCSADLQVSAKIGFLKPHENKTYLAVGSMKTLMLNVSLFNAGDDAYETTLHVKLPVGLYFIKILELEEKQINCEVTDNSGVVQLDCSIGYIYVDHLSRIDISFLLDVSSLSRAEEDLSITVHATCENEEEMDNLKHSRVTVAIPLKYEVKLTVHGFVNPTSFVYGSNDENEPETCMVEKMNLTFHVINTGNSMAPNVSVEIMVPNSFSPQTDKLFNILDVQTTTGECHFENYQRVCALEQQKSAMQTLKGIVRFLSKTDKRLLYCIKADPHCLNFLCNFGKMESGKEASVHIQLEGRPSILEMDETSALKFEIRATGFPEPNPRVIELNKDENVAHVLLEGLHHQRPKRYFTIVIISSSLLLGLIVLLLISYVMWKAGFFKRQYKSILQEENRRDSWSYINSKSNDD

The compounds below were run against Integrin alpha-4 (Homo sapiens) (UniProt P13612) (assay: enhancers of LDV-FITC binding to VLA-4 integrin, primary screen, Jurkat cells, flow cytometry (AID 528;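 on activation: 0% = ligand binding without compound and 100% = manganese-stimulated maximal binding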)). Settings: stronger effect = higher value, screened at 10 µM (by protocol).
`COc1ccc(OC)c(NC(=O)[C@H]2CC=CC[C@H]2C(=O)O)c1` was tested, and the activation was inactive: 2%. With `Cc1cc(NC(=O)c2ccc(S(=O)(=O)N3CCOCC3)cc2)nc2c1c(=O)oc1ccccc12` the activation was “inconclusive”. For `Cc1ccc(O)c(-c2cc(C(=O)Nc3ccc(S(=O)(=O)N4CC(C)OC(C)C4)cc3)[nH]n2)c1` (centres undefined), the activation was inactive: -23%. With `CN(C)CCNC(=O)c1ccc(CS(=O)(=O)c2ccc(Br)cc2)o1` the activation was inactive: 2%. For `CCOC(=O)N1CCC(n2c(SCC(=O)Nc3nccs3)nc3ccsc3c2=O)CC1`, the activation was “inconclusive”. In the case of `O=C(C1CCN(c2nnc(-n3cccc3)s2)CC1)N1CCOCC1`, the activation is reported as inactive: 2.7%. With `CSc1nc(N)nc(SCC(=O)c2ccccc2)c1C#N` the activation was inactive: -1%. In the case of `Cc1oc(-c2cccc(Cl)c2)nc1CN1CCC(C(=O)NCc2ccco2)CC1`, the activation is reported as “inconclusive”. With `COc1ccc(OC)c2[nH]c(=O)c(CCNS(=O)(=O)c3ccccc3)cc12` the activation was “inconclusive”. In the case of `Cc1ccc(-c2nn3c(C)nnc3s2)cc1NC(=O)COc1ccc(Cl)cc1`, the activation is reported as “inconclusive”. In the case of `O=C(CC1Sc2ncnn2C1=O)Nc1ccc(Br)cc1` (centres undefined), the activation is reported as inactive: 4%. `CCc1ccccc1NS(=O)(=O)c1ccc2[nH]cc(C(=O)NCC3CCCO3)c(=O)c2c1` (centres undefined) was tested, and the activation was “inconclusive”. With `CCOC(=O)N1CCC(Nc2c(-c3ccc(C)c(C)c3)c(=O)c2=O)CC1` the activation was “inconclusive”. For `C=CCn1c(SCC(=O)Nc2ccc3c(c2)CCC3)nnc1-c1cccs1`, the activation was “inconclusive”. In the case of `CCOC(=O)c1[nH]c2ccc(Br)cc2c1NC(=O)CCN1CCC(C(=O)OCC)CC1`, the activation is reported as inactive: -7%. In the case of `Cc1ccccc1N1CC(c2nc3ccccc3[nH]2)CC1=O` (centres undefined), the activation is reported as “inconclusive”. With `CCOC(=O)C1=C(C)NC(C)=C(C(=O)OCC)C1C(=O)OC1CCOC1=O` (centres undefined) the activation was “inconclusive”. In the case of `CCc1nc2sc3ccccc3c(=O)c2c(=O)n1Cc1ccco1`, the activation is reported as “inconclusive”. In the case of `CCOc1ccc(CC(=O)N2CCN(c3ccc(N4CCOCC4)nn3)CC2)cc1OCC`, the activation is reported as inactive: 1%. For `CCn1c(SCC(=O)Nc2cc(C)on2)nc2c(c1=O)SC(C)C2` (centres undefined), the activation was “inconclusive”. In the case of `COc1ccc(-c2cnnn2-c2ccc(NC(=O)c3ccco3)cc2)cc1OC`, the activation is reported as “inconclusive”. `N[C@@H](Cc1ccc(O)c(I)c1)C(=O)O` was tested, and the activation was inactive: 0%. `Cc1cccc(CCNS(=O)(=O)c2ccc3c(c2)oc(=O)n3C)c1` was tested, and the activation was “inconclusive”. `CCc1ccc(NC(=O)NCCN2CCc3ccccc3C2)cc1` was tested, and the activation was inactive: -14%. With `C=CCn1c(N)c(C(=O)NCCC2=CCCCC2)sc1=S` the activation was inactive: -3.3%. In the case of `Cn1c(=O)oc2cc(S(=O)(=O)Nc3cccc(F)c3)ccc21`, the activation is reported as “inconclusive”. With `CNC(=O)Nc1cc(C(C)(C)C)no1` the activation was inactive: -2%. `OC(Cc1nc2ccccc2[nH]1)c1ccccc1Cl` (centres undefined) was tested, and the activation was “inconclusive”. For `COc1ccc(OC)c(C2C(C(N)=O)=C(C)Nc3nc(CCCO)nn32)c1` (centres undefined), the activation was inactive: 6%. `COc1ccc(NC(=O)c2nc[nH]c2C(=O)Nc2ccccc2C)cc1` was tested, and the activation was inactive: 7.5%. `O=C(c1ccc(CSCc2ccccc2F)o1)N1CCN(c2ccc(N3CCOCC3)nn2)CC1` was tested, and the activation was inactive: -8%. `CC(C)C(=O)Nc1c(C(=O)c2ccc(F)cc2)oc2ccccc12` was tested, and the activation was inactive: -2%. With `O=C(NCC12CC3CC(CC(C3)C1)C2)c1nn2c(c1Cl)NC(c1ccco1)CC2C(F)(F)F` (centres undefined) the activation was inactive: 8%. For `CCC(C(=O)NCCN1CCN(C)CC1)n1c(C)c2cnn(-c3ccccc3)c(=O)c2c1C` (centres undefined), the activation was “inconclusive”. `N#CC1=C(N)SC(N)=C(C#N)C1c1ccnc2ccccc12` was tested, and the activation was “inconclusive”. `CCOC(=O)c1cc2c(=O)n3ccccc3nc2n(CCCOC)c1=NC(=O)c1cccnc1` was tested, and the activation was inactive: 0%. In the case of `COc1cccc(-n2ccnc2SCC(=O)Nc2cc(OC)ccc2OC)c1`, the activation is reported as “inconclusive”. For `CCN(Cc1ccccc1)C(=O)CSc1nc(C)cc2c1C(=O)OC2`, the activation was inactive: -9%. For `COCCNC(=O)Cn1cnc2ccc(S(=O)(=O)N3CCC(C)CC3)cc2c1=O`, the activation was “inconclusive”. For `CN(C)c1nc(Oc2ccc(N)cc2)nc(N(C)C)n1`, the activation was “inconclusive”. `CCOC(=O)C(C)NC(=O)C(NC(=O)C1CCC(CC)CC1)C(C)C` (centres undefined) was tested, and the activation was “inconclusive”. In the case of `Cc1ccc(CNC(=O)CCS(=O)(=O)c2cccc3nonc23)cc1`, the activation is reported as inactive: -5%. With `CCOc1ccccc1C(=O)Nc1ccc2nc(N3CCN(c4ncccn4)CC3)cc(C)c2c1` the activation was “inconclusive”. With `CCN(C(=O)CSc1nc2cc(C(=O)OC)ccc2c(=O)n1Cc1ccco1)c1cccc(C)c1` the activation was “inconclusive”. In the case of `Cn1c(Cn2c(=O)sc3ccccc32)nnc1SCC(=O)N1CCCCCC1`, the activation is reported as “inconclusive”. With `Cc1nc2sc(C(c3ccc(F)cc3)N3CCOCC3)c(O)n2n1` (centres undefined) the activation was “inconclusive”. In the case of `Cc1cc(C)c(NC(=O)CN2CCN(C)CC2)c(C)c1`, the activation is reported as “inconclusive”. For `CSC1=NCCN1C(=O)c1c(F)cccc1Cl`, the activation was “inconclusive”. `Cc1ccc(-c2nc(-c3ccccc3)no2)c(Cl)c1` was tested, and the activation was “inconclusive”. With `CC(=O)c1cccc(S(=O)(=O)NCC(c2ccco2)N2CCCCC2)c1` (centres undefined) the activation was inactive: -2.5%. `CC(CCc1ccco1)NC(=O)Cn1ncc2c1-c1ccccc1OC2` (centres undefined) was tested, and the activation was inactive: 0.7%. In the case of `CCOc1ccc2nc(NC(=O)C(CCSC)NS(=O)(=O)c3cccs3)sc2c1` (centres undefined), the activation is reported as “inconclusive”. For `O=C1OCc2cc(NC(=O)C3COc4ccccc4O3)ccc21` (centres undefined), the activation was “inconclusive”. With `CCOc1nc(C#N)nc(N2CCCCC2)n1` the activation was “inconclusive”. For `O=C1C2CCCN2C(c2ccc(Cl)cc2)N1c1nccs1` (centres undefined), the activation was inactive: 3%. `Cc1ccc(S(=O)(=O)N2CCCC2CO)cc1` (centres undefined) was tested, and the activation was inactive: 5%. In the case of `COc1ccc(-c2oc3ncn(CCN4CCOCC4)c(=N)c3c2-c2ccc(OC)cc2)cc1`, the activation is reported as inactive: -4%. For `COc1ccc(CCNC(=O)C2CCN(S(=O)(=O)c3cc(OC)ccc3OC)CC2)cc1`, the activation was inactive: 2%. For `O=C1CN(Cc2ccccc2)C(=NCc2ccco2)S1`, the activation was inactive: 10%. For `O=C(CSc1nc2c(cnn2-c2ccccc2)c(=O)[nH]1)N1CCOCC1`, the activation was “inconclusive”. With `COc1ccc(-c2nc(CS(=O)CC(=O)NCc3ccc4c(c3)OCO4)c(C)o2)cc1` (centres undefined) the activation was “inconclusive”. For `CCOc1ccccc1CNC(=O)c1cc2occc2n1C`, the activation was “inconclusive”. `O=C(Cc1coc(-c2ccc(F)cc2)n1)NC1CCCCC1` was tested, and the activation was inactive: -6%. `CCn1c(N)c(C(=O)NCC2CCCO2)sc1=S` (centres undefined) was tested, and the activation was inactive: 3%. In the case of `COc1cccc(C(=O)CSc2nnc(-c3cc(OC)c(OC)c(OC)c3)o2)c1`, the activation is reported as “inconclusive”. For `CC(=O)N1CCN(c2ccc(NC(=O)c3ccc(C(C)(C)C)cc3)cc2)CC1`, the activation was “inconclusive”. For `Cc1noc(C)c1S(=O)(=O)NC1CCCc2ccccc21` (centres undefined), the activation was “inconclusive”. `O=C1CCCCCN1CSc1nc2ccccc2s1` was tested, and the activation was inactive: -3%. For `CN(C)CCCNC(CC(=O)Nc1ccc(Cl)cc1)C(=O)O` (centres undefined), the activation was inactive: 4%. With `COc1ccc(C2C=C(C)Nc3nc(SC)nn32)cc1` (centres undefined) the activation was “inconclusive”. In the case of `COC(=O)c1ccc(CSc2nc3ccccc3s2)o1`, the activation is reported as inactive: 3%. In the case of `CS(=O)(=O)N(CC(=O)N1CCCCCC1)c1ccc(Br)cc1`, the activation is reported as inactive: 6%. For `COc1ccc(-c2nc3c(c(=O)n(C)c(=O)n3C)n2CC2CC(c3ccccc3)=NO2)cc1OC` (centres undefined), the activation was inactive: 0.5%. For `Cc1ccccc1NC(=O)c1ccc(F)c(S(=O)(=O)N2CCN(c3ccccn3)CC2)c1`, the activation was “inconclusive”. With `O=C(C1CC1)N1CCN=C1SCc1ccccc1Cl` the activation was inactive: 2%. `COC(=O)CSc1nc2sc3c(c2c(=O)n1C1CCCCC1)CCN(C)C3` was tested, and the activation was inactive: 4%. For `CC(C)(O)C#Cc1ccc(C(=O)NCc2cccs2)s1`, the activation was “inconclusive”. In the case of `CC(C)N(CCCNC(=O)C1CCN(S(=O)(=O)N2CCOCC2)CC1)Cc1ccccc1`, the activation is reported as inactive: 3%. For `CCOC(=O)CN(C)Cc1c[nH]c2ccccc12`, the activation was “inconclusive”. For `CCOC(=O)C1CCN(C(=O)c2ccc(Cl)c(Cl)c2)CC1`, the activation was “inconclusive”. In the case of `Cc1ccc2[nH]c(=O)c(-c3noc(C(C)C)n3)cc2c1`, the activation is reported as “inconclusive”. For `O=C(CN1CCC(O)(c2ccc3c(c2)OCO3)CC1)OC1CCCCC1`, the activation was inactive: -5.7%. In the case of `CCOc1cc2[nH]c(=O)n(Cc3ccc(C(=O)NCCOC)cc3)c(=O)c2cc1OCC`, the activation is reported as “inconclusive”. With `CC(C)NC(=O)c1ccc2c(=O)n(C3CCCC3)c(=S)[nH]c2c1` the activation was “inconclusive”. For `COc1ccc(NC(=O)c2ccc3c(=O)n(Cc4ccco4)c(=S)[nH]c3c2)c(OC)c1`, the activation was “inconclusive”. `O=C(NCCCN1CCN(c2ccccc2F)CC1)C1CCN(S(=O)(=O)c2cccs2)CC1` was tested, and the activation was “inconclusive”. In the case of `O=c1cc(Nc2ccc3c(c2)OCCO3)[nH]c(=O)n1C1CCCCC1`, the activation is reported as inactive: -1%. `CC(C)CCNC(=O)NC(=O)CSc1nnc(-c2ccccc2F)n1N` was tested, and the activation was “inconclusive”. `c1ccc2c(c1)nc(N1CCOCC1)c1nnnn12` was tested, and the activation was “inconclusive”. For `Cc1ccc2nc(SC(C)C(=O)N3CCCC3)[nH]c2c1` (centres undefined), the activation was “inconclusive”. In the case of `CC1(C(=O)CSc2nc3ccccc3s2)CCC(=O)O1` (centres undefined), the activation is reported as “inconclusive”. With `CCN1CCN(C(=O)c2ccc3c(=O)n(CCC4=CCCCC4)c(=O)[nH]c3c2)CC1` the activation was “inconclusive”. With `Cc1ccccc1-c1nc(CS(=O)CC(=O)NCc2ccccc2)c(C)o1` (centres undefined) the activation was “inconclusive”. For `O=C(OCc1cccs1)c1ccccc1NS(=O)(=O)c1ccc2c(c1)OCCO2`, the activation was inactive: -12%. `COc1cc2c(cc1OC)C(C(=O)O)C(c1cc(Br)c(O)c(OC)c1)N(C)C2=O` (centres undefined) was tested, and the activation was “inconclusive”. With `Cc1cc(-n2c(SCC(=O)NCc3cccs3)nc3n[nH]c(C)c3c2=N)ccc1Cl` the activation was “inconclusive”. In the case of `Cn1c(Cn2c(=O)sc3ccccc32)nnc1SCC(=O)Nc1ccccc1`, the activation is reported as “inconclusive”. `O=C(CSc1nnc2c3cc(F)ccc3nc(-c3ccccc3)n12)N1CCOCC1` was tested, and the activation was inactive: 0.5%. For `O=C(CCCn1ncn2c(cc3occc32)c1=O)N1CCc2ccccc2C1`, the activation was “inconclusive”.
